Experimental data as given in patent US20220235328A1, “HUMAN DISEASED AND NORMAL KIDNEY EPITHELIAL CELL CULTURES AND USES THEREOF” (DISCOVERYBIOMED, INC., priority 2019, published 2022).
At least one structure is not confirmed: it was looked up by name or label, or the drawing left a doubt.

System: primary huADPKD cells
Assay: Cyst attack cystogenesis bioassay, cyst image tracking
Assay type: cell-based, human
Details: 3 μM
Procedure: Primary cells capable of 3D cystogenesis were seeded as described above for the cyst prevention cytogenesis bioassay. In the cyst attack assay, cysts were allowed to develop to 12-24 in number and allowed to expand to a significant size. Specific cysts or cyst clusters were marked in each well. A test compound was then added to attack the already formed cysts to determine effects on the cysts. […] The timing of addition of the compound, frequency of addition of the compound and concentration of the compound varied.
A prominent cyst was imaged before treatment and daily for 6 days after treatment began. This larger cyst increased by 2.5 to 3.0 fold in the presence of the industry standard drug, tolvaptan, a vasopressin receptor antagonist.

CO[C@H]1C[C@@H]2CC[C@@H](C)[C@@](O)(O2)C(=O)C(=O)N2CCCC[C@H]2C(=O)O[C@H]([C@H](C)C[C@@H]2CC[C@@H](O)[C@H](OC)C2)CC(=O)[C@H](C)/C=C(\C)[C@@H](O)[C@@H](OC)C(=O)[C@H](C)C[C@H](C)/C=C/C=C/C=C/1C [rapamycin]
effect on other cysts and spheroids: eliminated other cysts and spheroids
size of a small cyst (daily for 6 days): increased in size modestly and remained static

COc1cc(Nc2c(C#N)cnc3cc(OCCCN4CCN(C)CC4)c(OC)cc23)c(Cl)cc1Cl [bosutinib]
size of a small cyst (days 3-6): attenuated or ‘locked’ in size
